Data taken from patent EP3212211B1, “MILK PROTEIN HYDROLYSATE FOR USE IN THE TREATMENT OF DIARRHOEA” (Laboratorios Ordesa, S.l., priority 2014, dated 2016).
At least one peptide structure holds a part that was inferred or is arguable (an end, a ring closure or a residue).

System: female Wistar rats
Test: castor oil induced acute diarrhoea in rats
Format: in vivo

CC(C)C[C@H](N)C(=O)N[C@@H](Cc1c[nH]c2ccccc12)C(=O)O [LW]
diarrhoea incidence (0.4 g/Kg p.o. (P group) 1 h before castor oil, versus RD group): didn't reduce significantly diarrhoea in respect of RD group
diarrhoea incidence (0.8 g/Kg p.o. (P+ group) 1 h before castor oil, first 4 h PI): 0%
diarrhoea incidence (0.8 g/Kg p.o. (P+ group) 1 h before castor oil, versus RD group at 5, 6 and 7 h PI (p<0.05)): low in relation to RD group
severity of diarrhoeic process (AUC of the diarrhoea index) (p.o. 1 h before castor oil, H1, H2 8.5 g/Kg, LW 0.8 g/Kg, racecadotril 40 mg/Kg, L 6.5 g/Kg, 0-3 h and 0-8 h PI (FIG. 8), versus RD group): maximal effect between groups
